From PubChem BioAssay AID743255 (National Center for Advancing Translational Sciences (NCATS), 2014)
Screen size: about 390,000 compounds; about 910 (0.23%) were called active. Inconclusive results, whose numbers are uncertain, are shown with a selection of clear calls. Calls come from the whole dose curve; as a rule, active = well fitted inhibition curve with a large enough effect; inconclusive = small, poorly fitted or top-dose-only effect; inactive = no such curve, though single readings can be large or run the other way. Potencies of inconclusive entries are doubtful fits and often do not repeat.

Chains of the proteins cited; added tags and fusions are not shown. Lines headed by an entry give the natural chain unless they say otherwise; changes in a name come on top.
UniProt O94782: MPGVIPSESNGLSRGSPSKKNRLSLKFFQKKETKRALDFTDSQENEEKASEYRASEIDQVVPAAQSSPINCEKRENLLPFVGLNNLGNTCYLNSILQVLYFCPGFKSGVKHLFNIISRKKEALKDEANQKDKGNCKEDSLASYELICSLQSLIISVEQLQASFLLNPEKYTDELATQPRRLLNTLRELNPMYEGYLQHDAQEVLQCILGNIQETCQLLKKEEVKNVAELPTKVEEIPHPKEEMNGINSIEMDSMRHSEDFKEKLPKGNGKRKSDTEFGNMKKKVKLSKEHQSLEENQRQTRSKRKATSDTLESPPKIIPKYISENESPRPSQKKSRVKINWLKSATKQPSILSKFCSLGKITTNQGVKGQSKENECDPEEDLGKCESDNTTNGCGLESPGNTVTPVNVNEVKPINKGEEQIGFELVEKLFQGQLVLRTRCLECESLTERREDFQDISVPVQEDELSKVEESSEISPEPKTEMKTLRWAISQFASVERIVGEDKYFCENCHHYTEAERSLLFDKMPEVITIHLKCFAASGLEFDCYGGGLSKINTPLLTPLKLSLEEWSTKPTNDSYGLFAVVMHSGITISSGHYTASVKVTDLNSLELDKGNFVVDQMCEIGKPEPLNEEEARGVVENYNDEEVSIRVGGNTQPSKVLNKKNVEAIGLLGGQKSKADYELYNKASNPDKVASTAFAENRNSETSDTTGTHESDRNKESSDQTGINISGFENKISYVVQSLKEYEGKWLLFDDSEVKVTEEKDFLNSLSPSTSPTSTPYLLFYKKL

Each compound was assayed against Ubiquitin carboxyl-terminal hydrolase 1 (Homo sapiens) (UniProt O94782) (assay: Inhibitors of USP1/UAF1: Primary Screen). Settings: recombinant USP1/UAF1, Ub-Rhodamine cleavage fluorescence; activity change, negative = inhibition: at 57.1 µM (top of the series).
Method in brief: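 USP1/UAF1 complex at 1 nM was preincubated with compound for 15 min at room temperature, then Ub-Rho substrate (150nM final) was added. Fluorescence (480/540 nm) was read kinetically, 6 reads every 60 seconds.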
% is set by controls: 0 for no effect and ±100 for the full control effect; potency is the fitted concentration of half-maximal effect.
Note: nearly all actives have a fitted effect of over 60% in size.

SMILES	activity change, negative = inhibition	Potency
COc1ccc(CNCCc2ccc([N+](=O)[O-])cc2)c(OC)c1OC	inactive: 5.22%	–
COc1cccc(CNC(=O)Cn2nc(C)n3c(cc4cc(C)ccc43)c2=O)c1OC	–	inconclusive: 0.316 µM [inhibitor, full curve]
COc1cc(/C=C2/C(=O)NN(c3cccc(Cl)c3)C2=O)cc(OC)c1O	–	inconclusive: 28.2 µM [inhibitor, partial curve]
CC1CCN(c2ccc3c(c2)S(=O)(=O)c2ccccc2C3=O)CC1	–	inconclusive: 39.8 µM [inhibitor, partial curve, poor fit]
CC(C)(C)c1cc(CSC(=S)NC2CCS(=O)(=O)C2)c(Br)c(C(C)(C)C)c1 (stereo not drawn)	–	inconclusive: 44.7 µM [inhibitor, single point]
Cc1ccc2c(c1)C(c1ccccc1)N(C(=O)COc1ccc(Cl)cc1Cl)CC(=O)N2 (stereo not drawn)	inactive: -27.4%	–
Cc1c(Cl)ccc2sc(N3CCN(C(=O)CCS(=O)(=O)c4ccc(F)cc4)CC3)nc12	inactive: 0.0721%	–
CCOc1ccc2nc(N(Cc3cccnc3)C(=O)c3cccs3)sc2c1	–	inconclusive: 6.31 µM [inhibitor, partial curve]
COc1cc(C(=O)NCc2ccccc2)cc(Br)c1OC	–	inconclusive: 8.91 µM [inhibitor, full curve, poor fit]
CCc1ccc(C)[n+](CC(=O)c2cccs2)c1	inactive: -12.3%	–
CCOC(=O)c1c(NC(=O)CN2C(=O)NC3(CCCCCC3)C2=O)sc(C)c1-c1ccc(C)cc1	inactive: -10.6%	–
NS(=O)(=O)c1ccc(CNC(=O)c2cc(-c3cccnc3)nc3ccccc23)cc1	inactive: -5.78%	–
CCOc1cc(N2CCOCC2)c(OCC)cc1NS(=O)(=O)c1cc(NC(C)=O)ccc1OC	–	inconclusive: 6.31 µM [inhibitor, single point]
Cc1ccccc1C(=O)N1CCC2CC1c1cc(-c3ccc(F)cc3)ccc12 (stereo not drawn)	–	inconclusive: 31.6 µM [inhibitor, partial curve, poor fit]
Cc1ccc(CSc2nc3ccncc3n2Cc2nc(-c3ccccc3C)oc2C)cc1	–	inconclusive: 44.7 µM [inhibitor, partial curve]
COC(=O)c1cc(=O)n(CCc2ccccc2F)c(=Nc2ccc(F)c(Cl)c2)s1	–	inconclusive: 0.0794 µM [inhibitor, full curve]
Cc1cc(OCC(=O)NCCCn2ccnc2)c2c(C)cc(=O)oc2c1	–	inconclusive: 15.8 µM [inhibitor, partial curve, poor fit]
COc1ccc(CNC(=O)c2cccn2-c2nnc(N3CCCCC3)s2)c(OC)c1	inactive: -7.32%	–
O=C(CN1C(=O)N/C(=C\c2ccccc2OCc2ccc(C(=O)O)cc2)C1=O)Nc1ccccc1F	–	inconclusive: 35.5 µM [inhibitor, single point]
CC(C)C(=O)N(Cc1ccccc1)c1ccccn1	–	inconclusive: 28.2 µM [inhibitor, single point]
CC(C)c1ccccc1NC(=O)Cn1cnc2c1c(=O)n(C)c(=O)n2C	–	inconclusive: 0.794 µM [inhibitor, full curve, poor fit]
c1cncc(CN=C2Nc3ccccc3CS2)c1	–	inconclusive: 44.7 µM [inhibitor, partial curve, poor fit]
Cn1cnc(S(=O)(=O)N2CCC(C(=O)Nc3ccc(Cl)c(C(F)(F)F)c3)CC2)c1	–	inconclusive: 0.251 µM [inhibitor, full curve, poor fit]

SMILES	activity change, negative = inhibition	Potency
Fc1ccc(-c2ccc3c(c2)C2CC3CCN2)cc1 (stereo not drawn)	–	inconclusive: 7.94 µM [inhibitor, partial curve, poor fit]
O=C1NCCN1c1ncc([N+](=O)[O-])s1	inactive: 1.83%	–
COC(=O)c1cc(C)nc2c1c(=O)nc(SCc1ccccc1Cl)n2C1CC1	inactive: -11%	–
CC(N)C12CC3CC(CC(O)(C3)C1)C2 (stereo not drawn)	–	inconclusive: 31.6 µM [inhibitor, partial curve]
COc1ccc(C(=O)NCc2nnc(SCC(=O)NC3CCCCC3)n2C)cc1	inactive: -3.84%	–
O=C(Nc1ccc2c(c1)Cc1ccccc1-2)c1ccco1	inactive: 1.97%	–
COCC(=O)Nc1ccc(S(=O)(=O)Nc2nccs2)cc1	inactive: -11.2%	–
COc1ccc(N2CCN(C(c3ccc(F)cc3)c3sc4nc(-c5ccco5)nn4c3O)CC2)cc1 (stereo not drawn)	–	inconclusive: 0.794 µM [inhibitor, full curve, poor fit]
CN1CCc2c(sc(/N=C/c3c[nH]c4ccccc34)c2C(N)=O)C1	–	inconclusive: 39.8 µM [inhibitor, partial curve, poor fit]
COCCn1c(=O)[nH]c2cc(C(=O)N3CCN(c4cccc(C)c4C)CC3)ccc2c1=O	–	inconclusive: 3.55 µM [inhibitor, full curve, poor fit]
Cc1cc(Cl)ccc1OCC(=O)N(Cc1ccc(N(C)C)cc1)C1CCS(=O)(=O)C1 (stereo not drawn)	–	inconclusive: 4.47 µM [inhibitor, single point]
CN(CCc1ccccc1)C(=O)c1ccc(NC(=O)Cc2ccc(NC(=O)C3CCN(C(=O)CCc4ccccc4)CC3)cc2)cc1	–	inconclusive: 0.251 µM [inhibitor, full curve, poor fit]
Cc1ccccc1N=Cc1cc2c(cc1O)OC(N)=C(C#N)C2c1ccccc1 (stereo not drawn)	–	inconclusive: 31.6 µM [inhibitor, single point]
COc1ccc(C(CNC(=O)CCNS(=O)(=O)c2ccccc2)N2CCOCC2)cc1 (stereo not drawn)	–	inconclusive: 0.398 µM [inhibitor, full curve, poor fit]
O=C(Nc1ccc(S(=O)(=O)Nc2nccs2)cc1)c1nn(-c2ccccc2)ccc1=O	inactive: -20.6%	–
COc1ccc(CNC(=O)c2ccc(Cl)c(S(=O)(=O)N3CCCCCC3)c2)cc1	–	inconclusive: 0.251 µM [inhibitor, full curve, poor fit]
CCN(CC)CCCNC(=O)c1cc2c(-c3cccc(OC)c3)nn(C)c2s1	–	inconclusive: 39.8 µM [inhibitor, partial curve, poor fit]
S=C(NCCc1ccccc1)Nc1ccc(Cl)cc1Cl	inactive: -11%	–
COc1ccc(CCNS(=O)(=O)c2ccc(F)cc2)cc1OC	–	inconclusive: 0.794 µM [inhibitor, full curve, poor fit]
CCOc1ccc(N=c2scc(-c3ccccc3)n2CCO)cc1	inactive: -19.2%	–
O=[N+]([O-])c1ccc(O)c(-c2ccnc3cc(-c4ccccc4)nn23)c1	inactive: -6.91%	–
COc1ccccc1CCNC(=O)C1CCN(c2nnc(C)c3c(C)n(-c4ccc(C)cc4)nc23)CC1	–	inconclusive: 31.6 µM [inhibitor, partial curve, poor fit]
N=C1CCC(=N)c2c1c(O)c1ccccc1c2O	–	active: 25.1 µM

Record cards, from the list above. Values in the order: activity change, negative = inhibition	Potency
O=C(Nc1ccc2c(c1)Cc1ccccc1-2)c1ccco1 is listed with inactive: 1.97%	–
O=[N+]([O-])c1ccc(O)c(-c2ccnc3cc(-c4ccccc4)nn23)c1 is listed with inactive: -6.91%	–
COc1ccc(N2CCN(C(c3ccc(F)cc3)c3sc4nc(-c5ccco5)nn4c3O)CC2)cc1 (stereo not drawn) is listed with –	inconclusive: 0.794 µM [inhibitor, full curve, poor fit]
O=C(Nc1ccc(S(=O)(=O)Nc2nccs2)cc1)c1nn(-c2ccccc2)ccc1=O is listed with inactive: -20.6%	–

Individual results from above:
Potency with `Cc1cc(Cl)ccc1OCC(=O)N(Cc1ccc(N(C)C)cc1)C1CCS(=O)(=O)C1` (stereo not drawn) reads inconclusive: 4.47 µM [inhibitor, single point]
activity change, negative = inhibition with `COCC(=O)Nc1ccc(S(=O)(=O)Nc2nccs2)cc1` reads inactive: -11.2%

(more compounds)

SMILES	activity change, negative = inhibition	Potency
Cc1cnc(NC(=O)Cc2ccc(C)c(C)c2)s1	–	inconclusive: 50.1 µM [inhibitor, partial curve, poor fit]
Cc1ccc(S(=O)(=O)N(C)C[C@H]2Oc3ccc(NC(=O)C4CCCCC4)cc3C(=O)N([C@H](C)CO)C[C@H]2C)cc1	–	inconclusive: 0.251 µM [inhibitor, full curve, poor fit]
O=C(NCc1cccnc1)C1CCN(S(=O)(=O)c2cccs2)CC1	inactive: -18.1%	–
Clc1ccccc1C1CC(c2ccccc2)=Nc2ccccc2N1 (stereo not drawn)	–	active: 50.1 µM
Cc1cccc(C)c1OC(=O)CSc1nnc(-c2ccc3c(c2)OCO3)o1	inactive: -18.8%	–
CCOc1ccc(CC(C(=O)NN)C(=O)NN)cc1CN(C)C	–	inconclusive: 28.2 µM [inhibitor, single point]
CCCCCCCSc1nnc(N)s1	–	inconclusive: 28.2 µM [inhibitor, single point]
O=c1cc(C(F)(F)F)nc(SCc2cccc3ccccc23)[nH]1	inconclusive: -33.6% [inhibitor]	–
COc1ccc(NC(=O)CC(C)S(=O)(=O)c2cc3c(cc2C)NC(=O)CO3)cc1OC (stereo not drawn)	–	inconclusive: 0.794 µM [inhibitor, full curve, poor fit]
CCC(=O)c1cn(CC(=O)O)c2ccccc12	–	inconclusive: 2 µM [inhibitor, partial curve]
CCCCNC(=O)CSc1nc2ccc(N3CCOCC3)cc2c(=O)n1Cc1ccc(OC)cc1	inactive: -2.16%	–
O=C(Nc1c2c(nn1-c1ccccc1)CS(=O)(=O)C2)C1CC1	–	inconclusive: 0.251 µM [inhibitor, full curve, poor fit]
O=c1ccc2cc3ccoc3cc2o1	–	inconclusive: 251 µM [inhibitor, partial curve, poor fit]
CCCCNc1cc(NC(C)=O)cc2cc(OC)c(OC)cc12	–	inconclusive: 25.1 µM [inhibitor, partial curve]
Nc1nc(N)c2c(n1)CN(Cc1ccc(Cl)cc1)C2	–	inconclusive: 20 µM [inhibitor, partial curve]
CCCS(=O)(=O)N1CCCC(C(=O)N2CCCCC2)C1 (stereo not drawn)	inactive: -18.7%	–
O=C(Nc1nnc(-c2ccc(F)cc2)o1)c1ccco1	–	inconclusive: 1.41 µM [inhibitor, full curve]
CC(C)C(=O)Nc1nnc(S(=O)(=O)N2c3ccccc3CC2C)s1 (stereo not drawn)	–	inconclusive: 7.94 µM [inhibitor, partial curve]
O=C(Cn1cnc2ccccc21)OCC(=O)N1CCCc2ccccc21	–	inconclusive: 0.316 µM [inhibitor, full curve, poor fit]
NNC(=O)c1cc2c(ccc3ccccc32)o1	–	inconclusive: 1 µM [inhibitor, full curve, poor fit]
Cc1cccc(C(=O)N2CCc3cc(CNS(=O)(=O)c4ccc(F)c(Cl)c4)ccc32)c1	–	inconclusive: 6.31 µM [inhibitor, single point]
O=c1c2ccccc2sn1-c1ccc(Cl)cc1	inactive: -22.7%	–
